The values below come from the supplement of paper PMC10849652.

Amino acid sequences for entries named in this document (tags omitted). A change or cut given only in a name is not applied to a line headed by its entry.
UniProt Q9P013: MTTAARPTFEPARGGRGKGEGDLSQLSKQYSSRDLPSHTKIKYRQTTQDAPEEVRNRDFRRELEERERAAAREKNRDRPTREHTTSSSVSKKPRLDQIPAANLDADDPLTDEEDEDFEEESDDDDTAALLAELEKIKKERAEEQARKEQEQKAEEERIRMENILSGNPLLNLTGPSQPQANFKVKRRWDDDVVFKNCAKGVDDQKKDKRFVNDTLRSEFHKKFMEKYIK
UniProt P0DMU8: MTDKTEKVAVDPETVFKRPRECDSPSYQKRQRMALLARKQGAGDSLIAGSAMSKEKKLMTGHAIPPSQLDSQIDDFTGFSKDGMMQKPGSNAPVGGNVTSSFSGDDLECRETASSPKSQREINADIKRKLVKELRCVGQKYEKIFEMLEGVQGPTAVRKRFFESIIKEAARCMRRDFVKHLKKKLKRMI
UniProt P32929, whole entry, looked up: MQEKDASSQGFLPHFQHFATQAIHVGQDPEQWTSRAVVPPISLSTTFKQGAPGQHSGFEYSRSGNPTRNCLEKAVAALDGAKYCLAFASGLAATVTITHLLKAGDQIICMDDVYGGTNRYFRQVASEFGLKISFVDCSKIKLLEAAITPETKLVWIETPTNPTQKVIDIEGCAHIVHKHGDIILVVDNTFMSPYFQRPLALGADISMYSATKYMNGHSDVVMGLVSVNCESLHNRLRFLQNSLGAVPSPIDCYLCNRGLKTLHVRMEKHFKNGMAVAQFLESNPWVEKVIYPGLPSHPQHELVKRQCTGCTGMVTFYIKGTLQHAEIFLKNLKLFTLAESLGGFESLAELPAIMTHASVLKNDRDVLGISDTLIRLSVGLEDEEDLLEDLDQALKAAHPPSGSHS
UniProt Q9NTM9: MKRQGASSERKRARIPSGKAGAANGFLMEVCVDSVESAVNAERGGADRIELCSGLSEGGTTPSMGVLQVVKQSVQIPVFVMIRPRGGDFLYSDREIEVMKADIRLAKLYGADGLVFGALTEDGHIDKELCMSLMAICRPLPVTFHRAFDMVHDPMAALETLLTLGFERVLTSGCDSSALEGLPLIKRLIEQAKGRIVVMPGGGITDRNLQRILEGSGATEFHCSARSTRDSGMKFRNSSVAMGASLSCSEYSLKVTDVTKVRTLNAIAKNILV
UniProt P21291: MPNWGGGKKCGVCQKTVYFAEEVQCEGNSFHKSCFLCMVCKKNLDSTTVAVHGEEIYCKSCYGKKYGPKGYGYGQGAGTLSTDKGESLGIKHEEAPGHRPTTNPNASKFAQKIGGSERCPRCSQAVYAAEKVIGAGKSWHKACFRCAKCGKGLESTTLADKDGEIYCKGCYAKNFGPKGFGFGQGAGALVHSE
UniProt Q13561, whole entry, looked up: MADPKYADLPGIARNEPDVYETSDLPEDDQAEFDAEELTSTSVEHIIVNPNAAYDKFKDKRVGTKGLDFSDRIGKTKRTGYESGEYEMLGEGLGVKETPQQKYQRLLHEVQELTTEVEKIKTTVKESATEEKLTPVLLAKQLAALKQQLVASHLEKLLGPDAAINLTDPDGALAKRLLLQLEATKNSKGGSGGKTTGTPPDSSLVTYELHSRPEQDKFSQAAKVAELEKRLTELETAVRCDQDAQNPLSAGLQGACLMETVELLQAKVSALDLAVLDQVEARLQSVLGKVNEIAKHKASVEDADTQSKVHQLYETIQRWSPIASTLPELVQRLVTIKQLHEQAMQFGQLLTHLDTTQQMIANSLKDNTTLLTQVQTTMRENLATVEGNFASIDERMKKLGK
UniProt Q9Y4B6: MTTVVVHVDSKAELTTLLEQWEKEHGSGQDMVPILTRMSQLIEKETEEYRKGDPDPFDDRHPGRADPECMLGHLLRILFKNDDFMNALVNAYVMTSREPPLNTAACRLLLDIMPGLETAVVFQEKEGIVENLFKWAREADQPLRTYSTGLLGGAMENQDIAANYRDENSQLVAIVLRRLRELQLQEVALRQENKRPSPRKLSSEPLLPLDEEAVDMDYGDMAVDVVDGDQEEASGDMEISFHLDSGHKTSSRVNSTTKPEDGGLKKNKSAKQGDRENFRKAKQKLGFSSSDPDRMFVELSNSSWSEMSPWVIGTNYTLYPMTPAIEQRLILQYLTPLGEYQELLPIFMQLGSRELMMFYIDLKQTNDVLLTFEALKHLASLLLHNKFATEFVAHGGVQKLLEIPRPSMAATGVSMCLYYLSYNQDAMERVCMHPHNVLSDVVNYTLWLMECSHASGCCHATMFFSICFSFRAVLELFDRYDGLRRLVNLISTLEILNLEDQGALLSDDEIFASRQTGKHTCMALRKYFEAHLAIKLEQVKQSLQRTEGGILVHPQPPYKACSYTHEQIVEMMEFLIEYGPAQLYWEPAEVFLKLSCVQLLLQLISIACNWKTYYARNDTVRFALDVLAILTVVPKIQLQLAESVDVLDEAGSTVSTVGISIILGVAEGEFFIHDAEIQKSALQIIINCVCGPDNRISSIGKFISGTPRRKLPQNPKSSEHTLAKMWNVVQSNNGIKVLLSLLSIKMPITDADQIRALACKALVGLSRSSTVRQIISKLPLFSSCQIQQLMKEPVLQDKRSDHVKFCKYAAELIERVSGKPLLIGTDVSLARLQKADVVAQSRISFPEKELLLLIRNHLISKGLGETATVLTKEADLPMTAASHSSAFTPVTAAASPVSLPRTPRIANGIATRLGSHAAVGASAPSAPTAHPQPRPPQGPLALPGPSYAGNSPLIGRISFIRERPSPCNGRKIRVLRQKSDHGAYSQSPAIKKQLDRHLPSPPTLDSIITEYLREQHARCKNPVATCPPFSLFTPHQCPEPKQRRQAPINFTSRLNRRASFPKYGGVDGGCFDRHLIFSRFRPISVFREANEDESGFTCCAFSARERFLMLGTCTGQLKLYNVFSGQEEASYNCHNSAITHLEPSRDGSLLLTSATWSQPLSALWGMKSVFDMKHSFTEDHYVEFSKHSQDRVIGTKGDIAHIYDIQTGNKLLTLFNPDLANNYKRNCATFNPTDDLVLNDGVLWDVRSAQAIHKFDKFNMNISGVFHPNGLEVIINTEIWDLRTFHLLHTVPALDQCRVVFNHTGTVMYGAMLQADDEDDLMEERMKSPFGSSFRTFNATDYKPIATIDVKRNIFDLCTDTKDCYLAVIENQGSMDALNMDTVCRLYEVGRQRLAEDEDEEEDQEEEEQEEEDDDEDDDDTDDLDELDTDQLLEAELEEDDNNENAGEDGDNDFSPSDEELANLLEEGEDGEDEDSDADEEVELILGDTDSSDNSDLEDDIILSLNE
UniProt Q9NXE8: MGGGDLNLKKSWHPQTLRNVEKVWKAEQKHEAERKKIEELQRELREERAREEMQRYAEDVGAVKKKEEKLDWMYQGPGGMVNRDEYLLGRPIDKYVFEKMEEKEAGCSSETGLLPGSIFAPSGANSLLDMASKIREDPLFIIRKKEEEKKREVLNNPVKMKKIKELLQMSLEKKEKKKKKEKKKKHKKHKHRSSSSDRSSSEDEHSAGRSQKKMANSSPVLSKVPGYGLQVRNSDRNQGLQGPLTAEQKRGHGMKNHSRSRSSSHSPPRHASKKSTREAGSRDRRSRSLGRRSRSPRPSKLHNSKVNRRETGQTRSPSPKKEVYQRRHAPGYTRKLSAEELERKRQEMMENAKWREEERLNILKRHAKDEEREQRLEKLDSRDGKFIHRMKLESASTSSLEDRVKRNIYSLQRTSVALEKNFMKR
UniProt P08574: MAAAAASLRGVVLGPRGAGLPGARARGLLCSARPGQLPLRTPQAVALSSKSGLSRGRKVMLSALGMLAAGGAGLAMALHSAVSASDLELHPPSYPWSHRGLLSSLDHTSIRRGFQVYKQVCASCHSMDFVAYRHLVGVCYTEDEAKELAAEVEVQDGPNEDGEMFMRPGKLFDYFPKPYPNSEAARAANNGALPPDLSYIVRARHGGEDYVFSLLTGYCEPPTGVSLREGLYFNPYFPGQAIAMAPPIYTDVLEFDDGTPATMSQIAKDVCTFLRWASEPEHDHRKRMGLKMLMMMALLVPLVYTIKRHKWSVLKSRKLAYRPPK
UniProt Q9UJW0, whole entry, looked up: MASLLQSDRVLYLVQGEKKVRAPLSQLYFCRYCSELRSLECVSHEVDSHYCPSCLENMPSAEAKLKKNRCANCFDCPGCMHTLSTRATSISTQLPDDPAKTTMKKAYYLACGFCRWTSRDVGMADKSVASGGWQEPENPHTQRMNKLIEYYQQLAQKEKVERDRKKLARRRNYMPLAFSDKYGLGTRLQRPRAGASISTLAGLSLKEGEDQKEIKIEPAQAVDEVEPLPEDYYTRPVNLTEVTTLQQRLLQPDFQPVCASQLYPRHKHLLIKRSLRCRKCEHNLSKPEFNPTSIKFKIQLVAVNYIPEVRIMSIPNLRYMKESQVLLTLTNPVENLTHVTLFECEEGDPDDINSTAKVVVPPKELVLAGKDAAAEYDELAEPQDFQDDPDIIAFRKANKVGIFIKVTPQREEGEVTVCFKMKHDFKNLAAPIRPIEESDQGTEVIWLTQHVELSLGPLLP
UniProt Q13619, whole entry, looked up: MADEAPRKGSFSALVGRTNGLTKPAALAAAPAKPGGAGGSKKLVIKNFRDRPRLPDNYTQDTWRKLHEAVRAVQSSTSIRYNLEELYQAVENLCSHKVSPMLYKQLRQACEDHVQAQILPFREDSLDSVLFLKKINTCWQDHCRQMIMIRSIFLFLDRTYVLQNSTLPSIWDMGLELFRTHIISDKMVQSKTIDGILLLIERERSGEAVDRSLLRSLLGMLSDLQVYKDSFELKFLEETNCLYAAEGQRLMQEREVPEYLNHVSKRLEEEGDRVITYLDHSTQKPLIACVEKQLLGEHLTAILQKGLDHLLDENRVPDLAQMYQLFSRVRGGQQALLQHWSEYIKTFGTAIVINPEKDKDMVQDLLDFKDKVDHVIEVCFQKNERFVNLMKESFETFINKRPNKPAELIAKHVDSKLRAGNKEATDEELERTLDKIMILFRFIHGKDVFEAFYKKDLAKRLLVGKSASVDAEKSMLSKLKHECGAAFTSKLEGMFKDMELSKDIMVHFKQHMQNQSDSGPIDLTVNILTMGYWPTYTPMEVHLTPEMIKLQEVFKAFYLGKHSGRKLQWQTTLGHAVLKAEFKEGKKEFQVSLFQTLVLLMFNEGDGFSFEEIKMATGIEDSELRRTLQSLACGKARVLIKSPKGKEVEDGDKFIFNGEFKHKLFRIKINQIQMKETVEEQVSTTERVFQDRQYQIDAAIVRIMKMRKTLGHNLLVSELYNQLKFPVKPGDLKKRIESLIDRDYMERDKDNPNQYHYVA
UniProt Q9BTE1, whole entry, looked up: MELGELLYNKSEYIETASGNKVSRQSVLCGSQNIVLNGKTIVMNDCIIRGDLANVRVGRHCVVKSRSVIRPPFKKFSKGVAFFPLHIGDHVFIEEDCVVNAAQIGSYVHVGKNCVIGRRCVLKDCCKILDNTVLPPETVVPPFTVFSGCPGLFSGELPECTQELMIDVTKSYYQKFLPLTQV
UniProt Q66K64, whole entry, looked up: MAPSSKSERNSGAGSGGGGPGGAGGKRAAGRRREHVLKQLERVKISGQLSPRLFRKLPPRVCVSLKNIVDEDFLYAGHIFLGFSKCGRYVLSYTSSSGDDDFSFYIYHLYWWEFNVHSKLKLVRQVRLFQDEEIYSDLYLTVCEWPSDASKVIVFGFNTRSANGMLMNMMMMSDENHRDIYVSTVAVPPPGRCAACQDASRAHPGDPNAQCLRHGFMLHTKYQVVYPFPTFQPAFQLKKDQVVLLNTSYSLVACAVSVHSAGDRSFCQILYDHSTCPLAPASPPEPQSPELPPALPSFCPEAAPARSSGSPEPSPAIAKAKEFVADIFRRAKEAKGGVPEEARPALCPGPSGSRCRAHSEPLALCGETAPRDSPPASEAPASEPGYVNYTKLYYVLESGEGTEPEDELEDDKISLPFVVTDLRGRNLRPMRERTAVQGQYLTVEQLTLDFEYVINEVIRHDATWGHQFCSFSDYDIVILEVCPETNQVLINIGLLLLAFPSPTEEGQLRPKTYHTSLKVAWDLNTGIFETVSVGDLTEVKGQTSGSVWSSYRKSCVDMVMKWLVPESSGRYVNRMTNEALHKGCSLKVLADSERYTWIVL
UniProt Q92564: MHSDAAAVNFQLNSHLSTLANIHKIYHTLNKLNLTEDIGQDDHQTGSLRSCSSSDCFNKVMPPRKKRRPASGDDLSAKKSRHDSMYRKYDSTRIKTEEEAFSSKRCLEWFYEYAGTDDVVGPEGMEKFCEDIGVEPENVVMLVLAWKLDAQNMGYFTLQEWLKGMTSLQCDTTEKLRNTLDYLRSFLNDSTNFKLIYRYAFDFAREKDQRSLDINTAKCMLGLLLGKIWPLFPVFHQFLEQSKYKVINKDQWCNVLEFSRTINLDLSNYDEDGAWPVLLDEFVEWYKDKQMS
UniProt Q96C57: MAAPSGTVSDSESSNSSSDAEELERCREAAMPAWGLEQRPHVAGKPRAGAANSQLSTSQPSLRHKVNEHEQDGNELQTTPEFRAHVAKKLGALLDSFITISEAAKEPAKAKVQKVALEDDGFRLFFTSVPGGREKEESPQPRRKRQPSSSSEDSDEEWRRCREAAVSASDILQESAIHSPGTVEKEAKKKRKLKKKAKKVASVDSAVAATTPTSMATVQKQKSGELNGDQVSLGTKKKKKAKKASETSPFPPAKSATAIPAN
UniProt Q9H1C7: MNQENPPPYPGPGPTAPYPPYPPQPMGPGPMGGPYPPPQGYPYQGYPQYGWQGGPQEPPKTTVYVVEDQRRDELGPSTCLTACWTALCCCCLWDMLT

Some of the results follow.

Compound in this test: c1cn2cc(-c3ccc4cn[nH]c4c3)nc(Nc3ccc(N4CCOCC4)cc3)c2n1 [entospletinib]
As to the kind of experiment: log2 fold change, soluble protein after heating vs DMSO (PISA); higher = thermal stabilisation; K562 cells, 10 uM, 30 min; active = over 0.2 and 3.5 SD of the protein, either way, in both replicates (recomputed). An outline of the steps:
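Soluble protein was quantified by TMTpro 16plex LC-MS/MS after channel sums were equalised. It was obtained as the supernatant after 21,000xg for 90 min from pooled aliquots of K562 cells (2×10^6 cells/mL, 10 μM compound, 30 min) heated for 3 min across 48°C-58°C and extracted in PBS with 0.5% NP-40 at 4°C. Thermal stability values are relative to control samples and come from duplicates. They are given as log2 fold changes.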
CWC15 (UniProt Q9P013): the log2 fold change was inactive: 0.079.

On to CT45A5 (UniProt P0DMU8), for which the log2 fold change was inactive: -0.004.

Regarding CT45A10 (UniProt P0DMU9), the log2 fold change is inactive: 0.051.

DCP1A (UniProt Q9NPI6): the log2 fold change is inactive: 0.063.

As to CSRP3 (UniProt P50461), the log2 fold change is inactive: -0.058.

Regarding CXorf38 (UniProt Q8TB03), the log2 fold change is inactive: -0.041.

As for CT55 (UniProt Q8WUE5), the log2 fold change was inactive: -0.005.

Regarding CTH (UniProt P32929), the log2 fold change is inactive: -0.026.

As for CUL1 (UniProt Q13616), the log2 fold change is inactive: -0.019.

Regarding CUTC (UniProt Q9NTM9), the log2 fold change is inactive: 0.026.

Regarding CSRP1 (UniProt P21291), the log2 fold change was inactive: -0.03.

On to CUL2 isoform 2 (UniProt Q13617), for which the log2 fold change was inactive: 0.005.

In the case of DCTN2 isoform 2 (UniProt Q13561), the log2 fold change was inactive: -0.005.

Turning to DCAF1 (UniProt Q9Y4B6), the log2 fold change was inactive: 0.022.

CWC25 (UniProt Q9NXE8): the log2 fold change is inactive: -0.055.

CYC1 (UniProt P08574): the log2 fold change is inactive: 0.022.

Take DCTN4 (UniProt Q9UJW0): the log2 fold change was inactive: -0.021.

CUL4A (UniProt Q13619): the log2 fold change is inactive: -0.057.

With DCTN5 (UniProt Q9BTE1), the log2 fold change is inactive: 0.055.

For CTTN (UniProt Q14247), the log2 fold change was inactive: -0.001.

Consider CSTF2T (UniProt Q9H0L4), for which the log2 fold change is inactive: -0.054.

Turning to DCAF15 (UniProt Q66K64), the log2 fold change is inactive: -0.102.

For the target DCUN1D4 isoform 3 (UniProt Q92564), the log2 fold change is inactive: -0.117.

For the target DAD1 (UniProt P61803), the log2 fold change is inactive: -0.149.

On to CYHR1 (UniProt E9PJD7), for which the log2 fold change was inactive: -0.003.

In the case of CUSTOS (UniProt Q96C57), the log2 fold change is inactive: 0.036.

With DCAF4L2 (UniProt Q8NA75), the log2 fold change was inactive: -0.083.

As to CYSTM1 (UniProt Q9H1C7), the log2 fold change was inactive: -0.081.

For the target CTNNA1 isoform 2 (UniProt P35221), the log2 fold change is inactive: -0.032.

Take CTCF (UniProt P49711): the log2 fold change was inactive: 0.098.

For DAGLB (UniProt Q8NCG7), the log2 fold change is inactive: 0.001.
